Source: doi:10.1101/2025.02.06.636700
No constants are given. Whether binding was seen depends on the method and setting. A result given as binding can be weak or reduced; the word gives no strength. Where a sequence is shown, tags or fusion partners need not be part of it.

Biological target: T1, IAA11 (INDOLE-3-ACETIC ACID INDUCIBLE 11), yeast two-hybrid fusion (Arabidopsis thaliana) (UniProt Q38829)
T1 sequence: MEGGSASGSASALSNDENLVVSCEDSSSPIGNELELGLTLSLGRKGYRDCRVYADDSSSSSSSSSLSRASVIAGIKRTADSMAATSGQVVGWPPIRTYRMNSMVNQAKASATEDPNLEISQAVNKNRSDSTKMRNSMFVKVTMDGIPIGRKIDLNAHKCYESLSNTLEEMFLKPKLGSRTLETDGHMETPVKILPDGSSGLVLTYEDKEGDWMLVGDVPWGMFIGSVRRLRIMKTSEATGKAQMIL
Assay: two-hybrid

Substance	binding
HaRxL106 carboxy-terminal domain (HaRxL106-c58), yeast two-hybrid fusion (Hyaloperonospora arabidopsidis) (domain or fragment)	binds
HaRxL106 full length (HaRxL106 FL), yeast two-hybrid fusion (Hyaloperonospora arabidopsidis)	binds
